The record followed here is article PMC8191293.

Amino acid sequences for entries named in this document (tags omitted). Residues count along the entry.
UniProt P61619: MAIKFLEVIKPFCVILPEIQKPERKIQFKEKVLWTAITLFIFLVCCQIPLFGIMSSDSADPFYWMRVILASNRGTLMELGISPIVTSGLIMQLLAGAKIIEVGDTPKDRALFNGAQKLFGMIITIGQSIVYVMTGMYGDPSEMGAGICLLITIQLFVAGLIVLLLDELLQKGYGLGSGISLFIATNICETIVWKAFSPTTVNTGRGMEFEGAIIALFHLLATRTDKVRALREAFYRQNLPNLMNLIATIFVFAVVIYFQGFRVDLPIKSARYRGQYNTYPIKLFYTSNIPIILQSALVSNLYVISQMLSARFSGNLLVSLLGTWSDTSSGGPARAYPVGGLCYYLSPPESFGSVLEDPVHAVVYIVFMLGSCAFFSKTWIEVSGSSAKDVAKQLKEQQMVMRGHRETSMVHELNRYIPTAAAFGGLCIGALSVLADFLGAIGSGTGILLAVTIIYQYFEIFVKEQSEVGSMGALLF
UniProt Q9NYU2, residues 43-1555: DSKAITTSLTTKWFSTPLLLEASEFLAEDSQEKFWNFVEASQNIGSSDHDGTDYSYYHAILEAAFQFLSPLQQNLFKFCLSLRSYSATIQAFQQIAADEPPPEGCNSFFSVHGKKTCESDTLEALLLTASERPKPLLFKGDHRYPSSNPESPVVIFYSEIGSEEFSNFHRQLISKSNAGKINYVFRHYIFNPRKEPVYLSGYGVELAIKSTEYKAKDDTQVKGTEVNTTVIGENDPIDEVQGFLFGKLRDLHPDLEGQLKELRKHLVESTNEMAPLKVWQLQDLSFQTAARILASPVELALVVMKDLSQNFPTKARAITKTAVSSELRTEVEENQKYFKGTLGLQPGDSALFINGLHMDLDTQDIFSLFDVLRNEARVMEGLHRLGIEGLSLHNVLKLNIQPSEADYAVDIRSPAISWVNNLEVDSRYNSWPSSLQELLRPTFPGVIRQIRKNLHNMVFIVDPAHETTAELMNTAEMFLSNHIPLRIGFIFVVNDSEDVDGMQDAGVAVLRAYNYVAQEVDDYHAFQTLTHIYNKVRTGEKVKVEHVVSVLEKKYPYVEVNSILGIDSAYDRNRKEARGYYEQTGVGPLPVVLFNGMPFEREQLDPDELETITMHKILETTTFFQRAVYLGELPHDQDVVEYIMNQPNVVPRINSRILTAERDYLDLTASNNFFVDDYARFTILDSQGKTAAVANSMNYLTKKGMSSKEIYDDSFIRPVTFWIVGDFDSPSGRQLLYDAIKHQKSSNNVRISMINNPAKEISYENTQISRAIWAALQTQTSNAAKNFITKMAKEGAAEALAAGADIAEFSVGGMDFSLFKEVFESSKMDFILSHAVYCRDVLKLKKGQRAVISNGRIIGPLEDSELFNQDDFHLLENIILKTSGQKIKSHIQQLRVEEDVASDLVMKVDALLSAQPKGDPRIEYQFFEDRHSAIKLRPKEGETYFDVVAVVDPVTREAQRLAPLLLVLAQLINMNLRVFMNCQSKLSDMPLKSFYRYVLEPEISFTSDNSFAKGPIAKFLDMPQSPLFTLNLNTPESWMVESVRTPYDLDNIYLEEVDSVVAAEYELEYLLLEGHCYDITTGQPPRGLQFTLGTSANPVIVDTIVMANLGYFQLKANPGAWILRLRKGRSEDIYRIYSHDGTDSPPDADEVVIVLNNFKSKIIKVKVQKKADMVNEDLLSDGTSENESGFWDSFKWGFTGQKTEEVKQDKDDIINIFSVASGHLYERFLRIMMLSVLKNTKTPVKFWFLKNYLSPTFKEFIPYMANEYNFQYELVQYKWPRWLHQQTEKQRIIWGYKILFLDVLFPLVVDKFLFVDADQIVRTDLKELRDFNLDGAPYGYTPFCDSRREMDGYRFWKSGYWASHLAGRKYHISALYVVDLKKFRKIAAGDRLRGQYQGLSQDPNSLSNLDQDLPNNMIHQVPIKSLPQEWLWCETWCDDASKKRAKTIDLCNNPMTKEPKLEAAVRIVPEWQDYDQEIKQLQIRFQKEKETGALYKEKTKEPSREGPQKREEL
UniProt P27824, residues 21-592: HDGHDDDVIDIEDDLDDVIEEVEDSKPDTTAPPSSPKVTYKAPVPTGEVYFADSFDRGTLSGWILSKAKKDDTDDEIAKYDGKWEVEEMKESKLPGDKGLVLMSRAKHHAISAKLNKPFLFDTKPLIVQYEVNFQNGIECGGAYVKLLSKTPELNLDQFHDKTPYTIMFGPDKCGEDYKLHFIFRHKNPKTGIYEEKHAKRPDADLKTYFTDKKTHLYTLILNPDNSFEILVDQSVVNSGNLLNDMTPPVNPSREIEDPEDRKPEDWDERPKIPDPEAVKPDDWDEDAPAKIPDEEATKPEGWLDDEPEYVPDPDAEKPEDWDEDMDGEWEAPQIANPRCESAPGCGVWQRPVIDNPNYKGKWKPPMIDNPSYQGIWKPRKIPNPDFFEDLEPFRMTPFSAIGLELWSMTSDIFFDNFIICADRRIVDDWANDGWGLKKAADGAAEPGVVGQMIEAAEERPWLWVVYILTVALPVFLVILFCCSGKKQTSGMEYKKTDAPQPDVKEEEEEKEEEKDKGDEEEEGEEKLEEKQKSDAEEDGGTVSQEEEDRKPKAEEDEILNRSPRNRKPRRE

Positions count from the first letter of the chain named. Like-named read-outs stand apart in the source and are kept apart here. No constants are given. Whether binding was seen depends on the method and setting. Binding seen in cells or lysates may run through a third protein. Here binding means that the protein was enriched with, or labelled near, the bait; the list need not be complete. For some assays here: No binding means not detected with the bait. Tags and fused reporters may be left off the sequences shown.

Common to all, as to assay: affinity purification with mass spectrometry; myc-tagged PMP22 (WT, N41Q or L16P) immunopurified from HEK293 lysate (0.3% CHAPS lysis buffer, pH 7.8) on anti-myc magnetic beads, 90 min at 4 °C; TMT-labelled LC-MS/MS; mock: cells expressing untagged PMP22; six biological replicates
Experiment [1] addresses T1, L16P PMP22 (Charcot-Marie-Tooth disease variant), myc-tagged (human) (UniProt Q01453).
T1 sequence (chain, N-linked glycan at N41 (80 ± 2% of L16P PMP22 was glycosylated in HEK293 cells)): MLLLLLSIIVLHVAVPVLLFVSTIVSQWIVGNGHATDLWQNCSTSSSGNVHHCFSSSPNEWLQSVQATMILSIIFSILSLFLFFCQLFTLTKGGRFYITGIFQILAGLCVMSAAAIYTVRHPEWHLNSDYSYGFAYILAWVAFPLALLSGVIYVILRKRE

In experiment [2] the target is T2, N41Q PMP22 (glycosylation-deficient), myc-tagged (human) (UniProt Q01453).
T2 sequence: T1 sequence (chain, N-linked glycan at N41 (80 ± 2% of L16P PMP22 was glycosylated in HEK293 cells)) with P16L, N41Q

The target in experiment [3] is T1, L16P PMP22 (Charcot-Marie-Tooth disease variant), myc-tagged (human). The source holds these as a separate data set.

For “Sec61α subunit of the translocon (from UniProt P61619 1-476)”, in experiment [1], the binding entry is listed as “binds”.

As to “UDP-glucose:glycoprotein glucosyltransferase 1 (from UniProt Q9NYU2 43-1555) (enzyme)”, the binding entry in experiment [1] and in experiment [2] was “no binding” in each case. Turning to calnexin (from UniProt P27824 21-592), the binding result in experiment [1] was “binds”; in experiment [2], “binds weakly”.

B1: STT3A, catalytic subunit of oligosaccharyltransferase OST-A (enzyme, UniProt P46977 1-705)
chain: MTKFGFLRLSYEKQDTLLKLLILSMAAVLSFSTRLFAVLRFESVIHEFDPYFNYRTTRFLAEEGFYKFHNWFDDRAWYPLGRIIGGTIYPGLMITSAAIYHVLHFFHITIDIRNVCVFLAPLFSSFTTIVTYHLTKELKDAGAGLLAAAMIAVVPGYISRSVAGSYDNEGIAIFCMLLTYYMWIKAVKTGSICWAAKCALAYFYMVSSWGGYVFLINLIPLHVLVLMLTGRFSHRIYVAYCTVYCLGTILSMQISFVGFQPVLSSEHMAAFGVFGLCQIHAFVDYLRSKLNPQQFEVLFRSVISLVGFVLLTVGALLMLTGKISPWTGRFYSLLDPSYAKNNIPIIASVSEHQPTTWSSYYFDLQLLVFMFPVGLYYCFSNLSDARIFIIMYGVTSMYFSAVMVRLMLVLAPVMCILSGIGVSQVLSTYMKNLDISRPDKKSKKQQDSTYPIKNEVASGMILVMAFFLITYTFHSTWVTSEAYSSPSIVLSARGGDGSRIIFDDFREAYYWLRHNTPEDAKVMSWWDYGYQITAMANRTILVDNNTWNNTHISRVGQAMASTEEKAYEIMRELDVSYVLVIFGGLTGYSSDDINKFLWMVRIGGSTDTGKHIKENDYYTPTGEFRVDREGSPVLLNCLMYKMCYYRFGQVYTEAKRPPGFDRVRNAEIGNKDFELDVLEEAYTTEHWLVRIYKVKDLDNRGLSRT
In the case of B1, in experiment [3], the binding result is “binds”.

B2: ZMPSTE24 (enzyme, UniProt O75844 1-475)
chain: MGMWASLDALWEMPAEKRIFGAVLLFSWTVYLWETFLAQRQRRIYKTTTHVPPELGQIMDSETFEKSRLYQLDKSTFSFWSGLYSETEGTLILLFGGIPYLWRLSGRFCGYAGFGPEYEITQSLVFLLLATLFSALTGLPWSLYNTFVIEEKHGFNQQTLGFFMKDAIKKFVVTQCILLPVSSLLLYIIKIGGDYFFIYAWLFTLVVSLVLVTIYADYIAPLFDKFTPLPEGKLKEEIEVMAKSIDFPLTKVYVVEGSKRSSHSNAYFYGFFKNKRIVLFDTLLEEYSVLNKDIQEDSGMEPRNEEEGNSEEIKAKVKNKKQGCKNEEVLAVLGHELGHWKLGHTVKNIIISQMNSFLCFFLFAVLIGRKELFAAFGFYDSQPTLIGLLIIFQFIFSPYNEVLSFCLTVLSRRFEFQADAFAKKLGKAKDLYSALIKLNKDNLGFPVSDWLFSMWHYSHPPLLERLQALKTMKQH
With B2, in experiment [3], the binding result is “binds”.

B3: HM13 (enzyme, UniProt Q8TCT9 1-377)
chain: MDSALSDPHNGSAEAGGPTNSTTRPPSTPEGIALAYGSLLLMALLPIFFGALRSVRCARGKNASDMPETITSRDAARFPIIASCTLLGLYLFFKIFSQEYINLLLSMYFFVLGILALSHTISPFMNKFFPASFPNRQYQLLFTQGSGENKEEIINYEFDTKDLVCLGLSSIVGVWYLLRKHWIANNLFGLAFSLNGVELLHLNNVSTGCILLGGLFIYDVFWVFGTNVMVTVAKSFEAPIKLVFPQDLLEKGLEANNFAMLGLGDVVIPGIFIALLLRFDISLKKNTHTYFYTSFAAYIFGLGLTIFIMHIFKHAQPALLYLVPACIGFPVLVALAKGEVTEMFSYEESNPKDPAAVTESKEGTEASASKGLEKKEK
For B3, the binding entry in experiment [3] is listed as “binds”.
